This passage reports binding results from doi:10.1101/2025.11.24.690135.

Sequences of proteins named here, by UniProt entry; tags and fusion partners are left off.
UniProt Q6R327, whole entry: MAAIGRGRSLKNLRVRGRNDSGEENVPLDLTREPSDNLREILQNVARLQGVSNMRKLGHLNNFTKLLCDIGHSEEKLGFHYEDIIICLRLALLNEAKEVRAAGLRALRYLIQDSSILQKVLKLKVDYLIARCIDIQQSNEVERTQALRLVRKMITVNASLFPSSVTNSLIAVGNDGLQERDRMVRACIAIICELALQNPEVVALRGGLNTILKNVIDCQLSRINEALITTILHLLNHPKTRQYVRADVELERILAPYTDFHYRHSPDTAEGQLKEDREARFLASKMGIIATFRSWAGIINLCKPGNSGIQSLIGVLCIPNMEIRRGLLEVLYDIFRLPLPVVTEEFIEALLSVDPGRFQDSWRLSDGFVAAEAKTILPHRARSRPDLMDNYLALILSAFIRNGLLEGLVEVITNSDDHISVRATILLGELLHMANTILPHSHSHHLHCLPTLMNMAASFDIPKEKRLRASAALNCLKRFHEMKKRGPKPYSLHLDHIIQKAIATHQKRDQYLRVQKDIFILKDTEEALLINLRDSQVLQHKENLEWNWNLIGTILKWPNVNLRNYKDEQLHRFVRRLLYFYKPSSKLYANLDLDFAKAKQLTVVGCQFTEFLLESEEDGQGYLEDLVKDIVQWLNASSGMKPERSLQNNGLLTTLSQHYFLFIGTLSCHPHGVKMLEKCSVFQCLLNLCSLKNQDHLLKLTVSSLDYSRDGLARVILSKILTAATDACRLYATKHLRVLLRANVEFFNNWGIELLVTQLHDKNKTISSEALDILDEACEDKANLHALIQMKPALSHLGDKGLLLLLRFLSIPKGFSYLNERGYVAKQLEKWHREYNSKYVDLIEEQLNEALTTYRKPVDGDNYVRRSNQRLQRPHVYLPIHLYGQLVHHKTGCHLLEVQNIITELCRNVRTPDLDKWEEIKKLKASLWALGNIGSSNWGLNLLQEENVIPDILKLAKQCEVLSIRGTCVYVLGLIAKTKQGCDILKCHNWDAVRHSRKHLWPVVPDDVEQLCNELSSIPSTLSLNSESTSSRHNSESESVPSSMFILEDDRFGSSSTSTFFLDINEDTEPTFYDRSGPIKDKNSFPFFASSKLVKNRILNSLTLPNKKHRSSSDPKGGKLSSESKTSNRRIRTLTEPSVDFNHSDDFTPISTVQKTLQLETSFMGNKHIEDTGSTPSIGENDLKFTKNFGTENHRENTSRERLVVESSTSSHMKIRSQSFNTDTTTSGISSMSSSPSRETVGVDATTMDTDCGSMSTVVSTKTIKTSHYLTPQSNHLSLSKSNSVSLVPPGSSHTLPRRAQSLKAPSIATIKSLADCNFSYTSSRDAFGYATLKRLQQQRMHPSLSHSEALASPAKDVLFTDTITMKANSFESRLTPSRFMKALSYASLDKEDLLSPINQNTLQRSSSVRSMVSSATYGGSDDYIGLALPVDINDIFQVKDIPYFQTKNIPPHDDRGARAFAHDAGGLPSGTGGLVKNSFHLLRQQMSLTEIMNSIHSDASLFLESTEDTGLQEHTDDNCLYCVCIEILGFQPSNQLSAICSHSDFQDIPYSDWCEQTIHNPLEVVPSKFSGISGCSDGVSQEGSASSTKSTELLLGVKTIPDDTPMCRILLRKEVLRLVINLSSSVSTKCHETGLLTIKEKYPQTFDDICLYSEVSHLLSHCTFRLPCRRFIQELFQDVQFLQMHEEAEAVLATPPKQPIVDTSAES
UniProt O14746, whole entry: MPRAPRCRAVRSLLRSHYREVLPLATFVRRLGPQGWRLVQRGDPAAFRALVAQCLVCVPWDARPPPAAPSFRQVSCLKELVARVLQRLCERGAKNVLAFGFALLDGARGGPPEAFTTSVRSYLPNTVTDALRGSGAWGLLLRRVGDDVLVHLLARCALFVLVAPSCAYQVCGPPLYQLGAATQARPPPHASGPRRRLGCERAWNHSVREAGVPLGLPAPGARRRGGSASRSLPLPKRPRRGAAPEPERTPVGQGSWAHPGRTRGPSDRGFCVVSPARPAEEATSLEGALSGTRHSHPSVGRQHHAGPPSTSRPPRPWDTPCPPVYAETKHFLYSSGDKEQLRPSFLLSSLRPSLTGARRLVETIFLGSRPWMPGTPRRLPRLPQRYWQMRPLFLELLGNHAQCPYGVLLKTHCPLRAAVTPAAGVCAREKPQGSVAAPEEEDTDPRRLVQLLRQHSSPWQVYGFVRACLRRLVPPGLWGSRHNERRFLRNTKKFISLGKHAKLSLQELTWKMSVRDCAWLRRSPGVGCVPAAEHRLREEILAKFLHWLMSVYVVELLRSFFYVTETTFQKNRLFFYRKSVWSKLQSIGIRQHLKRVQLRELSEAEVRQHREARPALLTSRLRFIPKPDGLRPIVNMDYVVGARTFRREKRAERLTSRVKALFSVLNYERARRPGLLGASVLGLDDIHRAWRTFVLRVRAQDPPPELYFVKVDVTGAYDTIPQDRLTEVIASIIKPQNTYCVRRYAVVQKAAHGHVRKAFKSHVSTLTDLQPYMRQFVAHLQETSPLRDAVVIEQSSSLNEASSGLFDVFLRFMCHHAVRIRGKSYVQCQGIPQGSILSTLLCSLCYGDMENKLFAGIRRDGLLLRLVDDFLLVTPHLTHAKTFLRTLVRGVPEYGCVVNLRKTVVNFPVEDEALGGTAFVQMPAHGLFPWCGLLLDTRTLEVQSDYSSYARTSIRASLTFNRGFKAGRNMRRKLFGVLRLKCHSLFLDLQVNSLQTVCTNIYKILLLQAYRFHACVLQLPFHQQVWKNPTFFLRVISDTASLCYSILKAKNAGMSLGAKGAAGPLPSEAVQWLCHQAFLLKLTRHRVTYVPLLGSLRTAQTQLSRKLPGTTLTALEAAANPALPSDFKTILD
UniProt O43524, whole entry: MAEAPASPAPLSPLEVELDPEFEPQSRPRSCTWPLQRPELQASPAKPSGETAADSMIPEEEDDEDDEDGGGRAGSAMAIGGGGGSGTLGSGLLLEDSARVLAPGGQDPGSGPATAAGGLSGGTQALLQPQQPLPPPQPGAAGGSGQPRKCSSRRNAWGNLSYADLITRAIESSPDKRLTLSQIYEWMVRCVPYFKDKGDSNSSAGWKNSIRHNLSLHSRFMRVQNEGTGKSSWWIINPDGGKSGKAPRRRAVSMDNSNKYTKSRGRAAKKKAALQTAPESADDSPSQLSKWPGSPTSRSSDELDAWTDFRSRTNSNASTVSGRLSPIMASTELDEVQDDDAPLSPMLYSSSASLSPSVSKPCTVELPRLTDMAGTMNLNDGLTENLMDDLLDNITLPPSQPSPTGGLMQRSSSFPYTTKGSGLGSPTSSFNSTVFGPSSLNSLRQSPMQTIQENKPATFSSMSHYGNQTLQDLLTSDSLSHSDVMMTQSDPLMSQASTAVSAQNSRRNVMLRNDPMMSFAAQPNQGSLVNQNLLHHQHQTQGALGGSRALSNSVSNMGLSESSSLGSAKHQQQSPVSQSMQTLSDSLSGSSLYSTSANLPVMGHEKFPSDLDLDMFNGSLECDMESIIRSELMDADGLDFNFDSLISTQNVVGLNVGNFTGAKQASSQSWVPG
UniProt P18848, whole entry: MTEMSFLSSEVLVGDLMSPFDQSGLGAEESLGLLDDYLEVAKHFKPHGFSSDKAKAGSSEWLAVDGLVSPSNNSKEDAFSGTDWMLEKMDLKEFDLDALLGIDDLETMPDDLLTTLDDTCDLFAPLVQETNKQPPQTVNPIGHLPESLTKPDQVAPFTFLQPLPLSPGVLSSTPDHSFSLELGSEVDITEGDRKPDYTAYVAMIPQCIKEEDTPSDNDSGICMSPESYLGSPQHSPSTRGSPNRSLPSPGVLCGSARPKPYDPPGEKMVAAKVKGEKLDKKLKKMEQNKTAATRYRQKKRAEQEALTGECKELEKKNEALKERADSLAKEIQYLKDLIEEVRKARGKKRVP
UniProt Q9BPZ7, whole entry: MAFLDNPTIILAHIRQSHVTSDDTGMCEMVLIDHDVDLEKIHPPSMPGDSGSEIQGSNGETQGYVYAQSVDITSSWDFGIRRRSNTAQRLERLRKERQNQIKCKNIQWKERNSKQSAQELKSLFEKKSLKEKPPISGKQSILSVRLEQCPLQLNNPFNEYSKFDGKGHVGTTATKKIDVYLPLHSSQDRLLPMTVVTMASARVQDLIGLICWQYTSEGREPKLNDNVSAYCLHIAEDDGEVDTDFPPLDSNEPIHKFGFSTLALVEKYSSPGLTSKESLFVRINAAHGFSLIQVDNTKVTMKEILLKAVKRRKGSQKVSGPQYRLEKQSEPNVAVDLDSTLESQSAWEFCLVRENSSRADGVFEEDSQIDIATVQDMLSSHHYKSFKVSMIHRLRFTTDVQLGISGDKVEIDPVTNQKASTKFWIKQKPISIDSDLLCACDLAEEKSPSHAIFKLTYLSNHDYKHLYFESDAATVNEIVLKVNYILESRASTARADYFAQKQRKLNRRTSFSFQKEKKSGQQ
UniProt P31749, whole entry: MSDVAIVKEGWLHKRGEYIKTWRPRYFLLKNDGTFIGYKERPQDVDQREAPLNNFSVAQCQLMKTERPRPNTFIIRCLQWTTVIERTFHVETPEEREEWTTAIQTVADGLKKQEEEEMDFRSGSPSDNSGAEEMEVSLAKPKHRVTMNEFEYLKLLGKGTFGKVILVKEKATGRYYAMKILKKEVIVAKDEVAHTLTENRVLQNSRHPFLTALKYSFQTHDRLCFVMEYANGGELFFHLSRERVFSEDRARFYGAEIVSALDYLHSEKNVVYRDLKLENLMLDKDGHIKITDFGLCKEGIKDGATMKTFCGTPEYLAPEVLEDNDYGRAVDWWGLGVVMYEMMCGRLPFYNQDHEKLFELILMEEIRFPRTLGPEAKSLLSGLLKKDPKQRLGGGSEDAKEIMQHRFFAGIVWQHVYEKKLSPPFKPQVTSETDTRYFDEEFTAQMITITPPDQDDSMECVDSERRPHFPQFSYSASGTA
UniProt P01106, whole entry: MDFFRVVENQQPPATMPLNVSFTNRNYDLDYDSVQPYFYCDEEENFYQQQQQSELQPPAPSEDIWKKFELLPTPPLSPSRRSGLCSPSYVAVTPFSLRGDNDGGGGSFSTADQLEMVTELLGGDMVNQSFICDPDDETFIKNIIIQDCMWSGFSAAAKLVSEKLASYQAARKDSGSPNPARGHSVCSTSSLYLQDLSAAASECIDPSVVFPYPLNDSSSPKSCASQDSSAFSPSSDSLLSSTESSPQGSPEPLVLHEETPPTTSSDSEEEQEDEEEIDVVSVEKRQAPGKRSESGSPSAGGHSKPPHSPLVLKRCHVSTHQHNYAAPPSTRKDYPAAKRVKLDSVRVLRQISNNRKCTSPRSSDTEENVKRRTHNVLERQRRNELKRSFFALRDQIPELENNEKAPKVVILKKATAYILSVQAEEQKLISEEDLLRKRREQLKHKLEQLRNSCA
UniProt Q9NT62, whole entry: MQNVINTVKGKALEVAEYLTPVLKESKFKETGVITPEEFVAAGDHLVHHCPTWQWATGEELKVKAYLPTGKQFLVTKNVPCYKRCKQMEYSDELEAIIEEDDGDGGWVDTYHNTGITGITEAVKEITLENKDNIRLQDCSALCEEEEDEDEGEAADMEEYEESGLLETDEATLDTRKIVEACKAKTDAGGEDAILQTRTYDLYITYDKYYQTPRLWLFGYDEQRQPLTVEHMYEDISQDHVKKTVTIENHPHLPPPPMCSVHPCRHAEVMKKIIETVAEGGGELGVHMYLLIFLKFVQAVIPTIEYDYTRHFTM

No constants are given. Whether binding was seen depends on the method and setting. Binding seen in cells or lysates may run through a third protein. Some results given as binding are weak or reduced against the parent protein; the word gives no strength.

Assay [1] concerns the target Rapamycin-insensitive companion of mammalian target of rapamycin, endogenous (human (endogenous in iPSC-RPE)) (UniProt Q6R327). In words: co-IP.
Assay [2] has as its target Regulatory-associated protein of mTOR, endogenous (human (endogenous in iPSC-RPE)) (UniProt Q8N122). In words: co-IP.
Assay [3] addresses telomerase reverse transcriptase, endogenous (human (endogenous in iPSC-RPE)) (UniProt O14746). In words: co-IP.
The target in assay [4] is forkhead box O3, endogenous (human (endogenous in iPSC-RPE)) (UniProt O43524). In words: co-IP.
Assay [5] concerns the target activating transcription factor 4, endogenous (human (endogenous in iPSC-RPE)) (UniProt P18848). In words: co-IP.
For assay [6], the target named is MAPKAP1 (mTORC2 subunit), endogenous (human (endogenous in iPSC-RPE)), Q9BPZ7. In words: co-IP. Conditions: remark: other sources report otherwise.
For a further assay, the target named is Magenta-MAPKAP1, Q9BPZ7. In words: FRET or BRET. Conditions: remark: other sources report otherwise. A general note: Bioluminescence resonance energy transfer reports proximity on the nanometre scale.

For the molecule “AKT serine/threonine kinase 1, overexpressed (AKT1 OE) (from UniProt P31749 1-480)”, the results for the binding entry in assay [1] and in assay [2] were “binds” and “binds weakly”, respectively.
Regarding “AKT serine/threonine kinase 2, overexpressed (AKT2 OE) (from UniProt P31751 1-481)”, the values for the binding entry in assay [1] and in assay [2] were “binds weakly” and “binds”, respectively.
Turning to “MYC, endogenous (from UniProt P01106 1-454)”, the binding result in assay [3] and in assay [4] was “binds” throughout.
Regarding “autophagy related 3, endogenous (from UniProt Q9NT62 1-314)”, the binding entry in assay [5] is “binds”.
Turning to “forkhead box O3, endogenous (from UniProt O43524 1-673)”, the binding entry in assay [3] was “no binding”.
Take “telomerase reverse transcriptase, endogenous (from UniProt O14746 1-1132)”: the binding result in assay [4] was “no binding”.

B1: AKT serine/threonine kinase 2, overexpressed (AKT2 OE), P31751 1-481 (protein)
chain: MNEVSVIKEGWLHKRGEYIKTWRPRYFLLKSDGSFIGYKERPEAPDQTLPPLNNFSVAECQLMKTERPRPNTFVIRCLQWTTVIERTFHVDSPDEREEWMRAIQMVANSLKQRAPGEDPMDYKCGSPSDSSTTEEMEVAVSKARAKVTMNDFDYLKLLGKGTFGKVILVREKATGRYYAMKILRKEVIIAKDEVAHTVTESRVLQNTRHPFLTALKYAFQTHDRLCFVMEYANGGELFFHLSRERVFTEERARFYGAEIVSALEYLHSRDVVYRDIKLENLMLDKDGHIKITDFGLCKEGISDGATMKTFCGTPEYLAPEVLEDNDYGRAVDWWGLGVVMYEMMCGRLPFYNQDHERLFELILMEEIRFPRTLSPEAKSLLAGLLKKDPKQRLGGGPSDAKEVMEHRFFLSINWQDVVQKKLLPPFKPQVTSEVDTRYFDDEFTAQSITITPPDRYDSLGLLELDQRTHFPQFSYSASIRE
As for B1, the binding entry in assay [6] is “no binding”.

B2: RFP-AKT2, P31751 1-481 (protein)
chain: B1 chain
In the case of B2, the binding entry with Magenta-MAPKAP1, Q9BPZ7 is “no binding”.

B3: autophagy related 4B cysteine peptidase, endogenous (protein, UniProt Q9Y4P1 1-393)
chain: MDAATLTYDTLRFAEFEDFPETSEPVWILGRKYSIFTEKDEILSDVASRLWFTYRKNFPAIGGTGPTSDTGWGCMLRCGQMIFAQALVCRHLGRDWRWTQRKRQPDSYFSVLNAFIDRKDSYYSIHQIAQMGVGEGKSIGQWYGPNTVAQVLKKLAVFDTWSSLAVHIAMDNTVVMEEIRRLCRTSVPCAGATAFPADSDRHCNGFPAGAEVTNRPSPWRPLVLLIPLRLGLTDINEAYVETLKHCFMMPQSLGVIGGKPNSAHYFIGYVGEELIYLDPHTTQPAVEPTDGCFIPDESFHCQHPPCRMSIAELDPSIAVGFFCKTEDDFNDWCQQVKKLSLLGGALPMFELVELQPSHLACPDVLNLSLDSSDVERLERFFDSEDEDFEILSL
As for B3, in assay [5], the binding result is recorded as “binds”.
